Here are results for one compound from ChEMBL document CHEMBL1153137, “Improving the developability profile of pyrrolidine progesterone receptor partial agonists” (Bioorg Med Chem Lett, 2010).

A short description of data set [1]: in vivo. The following applies: rat, po.
Data set [2] in a line: in vivo. The following applies: rat, iv.
Data set [3] is described as follows: in vivo. The following applies: rat, iv. This is another data set of the same source.
Data set [4] can be described thus: in vivo. The following applies: rat, iv. The source holds these as a separate data set.
Data set [5] in a line: in vivo. The following applies: rat, iv. The source holds these as a separate data set.

As usually defined, the bioavailability is the share of a dose that reaches the circulation, judged against a reference dose that is usually intravenous. Read a high bioavailability as good availability. What is called Cmax is the highest concentration seen after dosing. The clearance is the volume of plasma or blood freed of the substance per unit of time. A high value points to efficient removal. The term Vd denotes a proportionality between amount in the body and measured concentration, not a real space. Broadly, the half-life is the time in which the quantity being followed falls by half. In turn, `C[C@H](O)C(=O)N1CC[C@H](N(Cc2cc(Cl)ccc2Cl)c2ccc(C#N)c(Cl)c2)C1` registered a bioavailability in “in vivo [1]” of 100%. Moreover, in “in vivo [2]”, the Cmax stood at 134 ng/mL. In the data set “in vivo [3]”, this compound gave a clearance of 150 mL/min/kg. For the same compound, the Vd in “in vivo [4]” was 10 L/kg. Moreover, the half-life in “in vivo [5]” is 1.1 h.
